Results of single-concentration screens

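Growth of Mycobacterium tuberculosis over 4 days (cholesterol / DPPC medium with tyloxapol); the read-out is not stated. Compounds at 50 µM. The record gives no direction; compounds that gave an IC50 in retests scored well above the rest, so higher reads as more growth inhibition. About 69,000 compounds were tested under these conditions; 0.54% (about 370) showed 50% or more at least once.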

Each number is a percent effect as filed. How 0% and 100% were set is not recorded. Most values in the screen are low, and negative values occur. The compounds are a random part of those screened. Two or more numbers in one place are separate tests of the same structure; such repeats can differ widely.

compound	effect
O=C(CNc1cc(-n2cnnn2)ccc1F)NCc1ccccc1	2.416%
Cc1cc(NC(=O)CN2CCc3cncnc3C2)on1	-10.89%
Cc1nn(CCNc2ncnc3c2NC(=O)CN3)c(C)c1Cl	0.9243%
O=C(O)C(F)(F)F.[H][C@]12CCN(c3ncccn3)CC[C@@]1([H])S(=O)(=O)N(CC(C)C)C2	3.369%
O=C(Nc1cn[nH]c1)NC1CCN(c2ccccc2OC(F)F)C1 (centres unmarked)	14.15%
N#Cc1c2n(c3c(N)ncnc13)CCCCC2	-26.14%
Cc1n[nH]c(C)c1Sc1ccccc1NC(=O)CN1CCCC1	8.052%
CCCN1CCCn2c(nc(CNC(=O)N3CCCC3)cc2=O)C1.O=C(O)C(F)(F)F	1.716%
CC(C)OC(=O)N1CCC(Cc2cccc(C(N)=O)c2)C1 (centres unmarked)	29.4% & -16.28%
COc1ccc(CCC(=O)Nc2ccncc2C)cc1	-30.95% & -6.674%
Cc1cnn(CC2CCCN2CC(=O)Nc2cc(C(C)C)no2)c1 (centres unmarked)	-34.79%
O=C(O)C(F)(F)F.[H][C@@]12CN(Cc3cc[nH]n3)C[C@]1([H])OCCN2c1cnccn1	2.636%
CCOC(=O)c1ccc(NC(=O)c2c(O)nc3c(c2O)CCCC3)cc1	10.31%
Cc1cccc(C(=O)N2CCCCC2c2[nH]ncc2S(C)(=O)=O)c1 (centres unmarked)	2.191%
[H][C@]12CN(C(=O)NC(C)C)CCN1C(=O)N(Cc1ccc(F)cc1)C2	-13.33%
OC1CCN(c2ccnc(NCCc3ccccc3Cl)n2)C1 (centres unmarked)	24.94%
O=C(Nc1ccccc1CCO)c1cccc(CN2CC[C@H](O)C2)c1	12.36%
Cc1nc(C(C)C)sc1C(=O)N(C)Cc1nc(-c2ccccn2)no1	-2.251%
CC(C)N(CC(C)(C)O)C(=O)NC1CC1	-6.634%
COc1ccc(C)cc1NC(=O)Nc1cnc(N2CCN(C)CC2)nc1	12.36%
CCN1CCCn2c(nc(CNC(=O)c3cnoc3C)cc2=O)C1.O=C(O)C(F)(F)F	-10.36%
Cc1ccc2c(c1)C(=O)NCC1(CCN(C(=O)c3scnc3C)CC1)O2	-4.183%
CCCc1ccc2oc(C(=O)N3CCN(CCC(N)=O)CC3)c(C)c2c1	5.772%
CC(CO)N(C)C(=O)c1cn(-c2ccc(Br)cc2)cn1 (centres unmarked)	14.34%
COC(=O)CNC(=O)c1cc(-c2ccccc2)nc2ncnn12	-1.755%
CC(=O)N1CCCc2cc(NC(=O)NCCc3cnn(C)c3)ccc21	-11.15%
CCc1nnc(Nc2cccc(C3CCN(C(=O)CO)CC3)n2)s1	-16.22%
COc1ccc(C2=CCN(C(=O)C3CCCN(C(N)=O)C3)CC2)cc1 (centres unmarked)	-2.662%
CC1CCN(C(=O)c2cnc3cc(C(=O)N(C)C)n(C)c3c2)CC1	-11.35%
CS(=O)(=O)NCCNC(=O)c1cnc(-c2ccccc2)nc1	-4.618%
CN(CC(=O)N1CCCC1)C(=O)c1cccn1CCc1ccccc1	-23.29%
c1cc(CN2CCCC3(CCN(CC4CCCO4)CC3)C2)n[nH]1 (centres unmarked)	-20.1%
CC(Cn1ccnc1)NC(=O)C1(c2ccccc2)CC1 (centres unmarked)	-3.382%
Cc1cc(CN2CCN(C(=O)NCc3nc(C)cs3)CC2)on1	-15%
CC(C)Nc1ncccc1C(=O)NCc1cnc(N(C)C)n1C	13.32%
Cn1cc(-c2nnc3sc(C4CC4)nn23)cn1	5.276%
NC(=O)CNC(c1ccccc1)c1ccc(OC(F)F)cc1 (centres unmarked)	-17.36%
Cc1nn(C)c(N(C)C)c1CNCc1ccnc(N2CCCC2)c1	4.287%
Cc1nc(C)n(CC2CN(CC(=O)Nc3nccs3)CCO2)n1 (centres unmarked)	-1.77%
O=C(C1CCCc2[nH]ncc21)N1CCCCCC1 (centres unmarked)	-23.21%
CC(=O)NCc1ccc(C(=O)N2CCCC(n3cncn3)C2)o1 (centres unmarked)	-2.76%
COCC(C)NC(=O)c1nnn(-c2ccc(OC)cc2)n1 (centres unmarked)	22.07%
Cc1sc2c(C3CCNCC3)nc(Nc3cccc(F)c3)n2c1C.Cl	4.222% & 7.548%
CCN(Cc1ccncc1)c1nc(C)nc2oc(C)nc12	7.734%
CN(C)S(=O)(=O)N1CCN(c2nccc(C(F)(F)F)n2)CC1	-23.32%
O=C(O)C(F)(F)F.[H][C@]12CCN(C(=O)c3ccno3)[C@@]1([H])CC[C@H](COCCN1CCCC1)O2	-16.86%
CCN1CCN(S(=O)(=O)c2cnc(NC(C)=O)s2)CC1	-12.94%
CN(CCO)Cc1nnc(C2CCN(C(=O)c3cc[nH]c3)CC2)n1C	6.121% & 7.698%
O=C(NCCc1ccn(-c2ccc(F)cc2)n1)C1CCCO1 (centres unmarked)	7.445% & 1.268%
COc1ccc(C2CCCN2c2ccnc(C)c2Cl)c(OC)c1 (centres unmarked)	5.491%
Cc1ccc(N2CCCC(N(C)c3nn4cc(C)nc4s3)C2)nn1 (centres unmarked)	-4.667%
O=c1c2ccccc2nc2n1CCN(Cc1cccs1)CC2	-8.966%
Cn1cnc2c1CCN(Cc1cccc(C(=O)N3CCCCC3)c1)C2	-29.52%
Cc1ccc(NS(=O)(=O)c2cnn(-c3ccccc3)c2)c(C(=O)O)c1	1.627%
Cc1ccc(CN(C)C(=O)CN2CCOC(Cn3cccn3)C2)o1 (centres unmarked)	-4.728%
Cc1n[nH]c(C)c1-c1cc(-c2cccc(O)c2)nc(N)c1C#N	2.447%
O=C(C1SCCc2sccc21)N1CC(O)C1 (centres unmarked)	-6.232%
[H][C@@]12CCN(C[C@@H]1C(=O)N1CCOCC1)[C@@H](Cn1cc(C(C)(C)O)nn1)C2	-18.74%
Cc1nc(CN2CCCC(CCc3ccccc3C(F)(F)F)C2)no1 (centres unmarked)	49.99%
CS(=O)(=O)c1ccc(CNC[C@H]2COCc3nc4cccnc4n32)cc1	4.643%
CCOC(=O)N1CCC2(CCCN(C3CCOCC3)C2=O)C1 (centres unmarked)	1.64%
O=C(NCC1(O)CCSC1)c1ccn(-c2ccccc2F)n1 (centres unmarked)	1.229%
CC(C)n1c(=O)nc2n1C(=O)N(c1ccc(F)cc1)C2	8.155%

5 of the entries, repeated:

| compound | effect |
|---|---|
| `Cc1cc(CN2CCN(C(=O)NCc3nc(C)cs3)CC2)on1` | -15% |
| `O=C(NCCc1ccn(-c2ccc(F)cc2)n1)C1CCCO1` (centres unmarked) | 7.445% & 1.268% |
| `Cc1cnn(CC2CCCN2CC(=O)Nc2cc(C(C)C)no2)c1` (centres unmarked) | -34.79% |
| `CCOC(=O)c1ccc(NC(=O)c2c(O)nc3c(c2O)CCCC3)cc1` | 10.31% |
| `Cc1nc(C(C)C)sc1C(=O)N(C)Cc1nc(-c2ccccn2)no1` | -2.251% |

From ChEMBL document CHEMBL3988442, “University of Dundee, Small-Polar-MMV Screening Library” (2021).